# Data taken from PMC10239980.
# The chains behind the UniProt entries cited, without tags or fusion partners. Residues count along the entry.
# UniProt P02771, 19-609: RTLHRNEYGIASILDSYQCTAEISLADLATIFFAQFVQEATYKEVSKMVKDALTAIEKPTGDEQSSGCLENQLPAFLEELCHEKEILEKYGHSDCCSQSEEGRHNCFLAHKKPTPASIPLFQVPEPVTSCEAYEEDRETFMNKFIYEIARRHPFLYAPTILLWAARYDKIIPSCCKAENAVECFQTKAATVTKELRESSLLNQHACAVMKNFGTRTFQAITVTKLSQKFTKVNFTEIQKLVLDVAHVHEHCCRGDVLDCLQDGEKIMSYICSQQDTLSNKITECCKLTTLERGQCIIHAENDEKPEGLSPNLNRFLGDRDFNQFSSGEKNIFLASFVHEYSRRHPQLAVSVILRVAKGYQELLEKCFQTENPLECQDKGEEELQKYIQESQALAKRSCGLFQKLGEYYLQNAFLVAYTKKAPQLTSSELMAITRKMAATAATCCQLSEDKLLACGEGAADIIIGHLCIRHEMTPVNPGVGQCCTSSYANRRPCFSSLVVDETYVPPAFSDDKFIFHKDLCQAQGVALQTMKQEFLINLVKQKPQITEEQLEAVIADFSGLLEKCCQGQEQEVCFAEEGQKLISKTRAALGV
# UniProt P17900, 32-193: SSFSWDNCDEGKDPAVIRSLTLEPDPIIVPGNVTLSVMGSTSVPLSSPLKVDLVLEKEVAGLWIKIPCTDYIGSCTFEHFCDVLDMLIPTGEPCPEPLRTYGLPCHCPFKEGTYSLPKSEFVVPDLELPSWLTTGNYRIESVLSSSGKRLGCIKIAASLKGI
# UniProt P05231, 30-212: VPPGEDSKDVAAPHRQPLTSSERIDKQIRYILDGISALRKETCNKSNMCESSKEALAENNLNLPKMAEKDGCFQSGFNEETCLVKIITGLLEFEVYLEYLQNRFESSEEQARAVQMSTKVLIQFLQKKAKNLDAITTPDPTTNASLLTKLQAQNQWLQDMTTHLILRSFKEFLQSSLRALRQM
# For part of these data: Negatives hold for the conditions tested. For part of these data: At least one verdict was read from the data and is not stated in words by the source. For part of these data: Protein sequences can lack the tags named with them. For part of these data: The exact form of at least one protein or probe is not confirmed.
# Assays:
# Alpha-fetoprotein (AFP) = Alpha-fetoprotein (AFP) (UniProt P02771); assay: not stated (cited); conditions: 10 mM sodium phosphate buffer pH 7.0, 30 min incubation at room temperature; CV in 10 mM PBS pH 7.4 with 5 mM [Fe(CN)6]3-; commercial protein; single-stranded DNA
# [1] = molecular target: T1, Carcinoembryonic antigen (CEA) (UniProt P06731); assay: electrochemical aptasensor (DPV); conditions: toluidine blue, 100-fold excess over 5 ng/mL AFP; 10 mM sodium phosphate buffer pH 7.0, 30 min incubation at room temperature; CV in 10 mM PBS pH 7.4 with 5 mM [Fe(CN)6]3-; commercial protein; single-stranded DNA
# T1 sequence (looked up, limits assumed): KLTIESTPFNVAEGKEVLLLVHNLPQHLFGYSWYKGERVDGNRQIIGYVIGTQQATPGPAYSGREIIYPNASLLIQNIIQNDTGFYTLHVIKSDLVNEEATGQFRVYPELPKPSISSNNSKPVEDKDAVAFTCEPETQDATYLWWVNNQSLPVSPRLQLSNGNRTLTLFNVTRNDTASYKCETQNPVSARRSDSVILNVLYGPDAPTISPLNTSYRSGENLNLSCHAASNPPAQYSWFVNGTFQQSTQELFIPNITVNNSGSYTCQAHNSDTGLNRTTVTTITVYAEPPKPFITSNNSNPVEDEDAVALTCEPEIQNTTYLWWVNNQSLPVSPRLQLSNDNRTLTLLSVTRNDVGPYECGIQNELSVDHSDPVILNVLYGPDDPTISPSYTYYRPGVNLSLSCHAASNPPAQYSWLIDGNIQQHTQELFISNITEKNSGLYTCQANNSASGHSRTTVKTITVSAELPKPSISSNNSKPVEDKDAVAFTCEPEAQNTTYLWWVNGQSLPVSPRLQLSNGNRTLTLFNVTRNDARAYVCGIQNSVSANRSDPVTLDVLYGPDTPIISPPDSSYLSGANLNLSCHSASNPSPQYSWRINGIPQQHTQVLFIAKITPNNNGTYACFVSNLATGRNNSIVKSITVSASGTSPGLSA
# [2] = molecular target: GM2A protein (GM2AP) (Homo sapiens) (UniProt P17900); assay: electrochemical aptasensor (DPV); conditions: toluidine blue, 100-fold excess over 5 ng/mL AFP; 10 mM sodium phosphate buffer pH 7.0, 30 min incubation at room temperature; CV in 10 mM PBS pH 7.4 with 5 mM [Fe(CN)6]3-; commercial protein; single-stranded DNA
# [3] = molecular target: HER2/ErbB2 (Homo sapiens) (UniProt P04626); assay: electrochemical aptasensor (DPV); conditions: toluidine blue, 100-fold excess over 5 ng/mL AFP; 10 mM sodium phosphate buffer pH 7.0, 30 min incubation at room temperature; CV in 10 mM PBS pH 7.4 with 5 mM [Fe(CN)6]3-; commercial protein; single-stranded DNA
# [4] = molecular target: Interleukin 6 (IL-6) (Homo sapiens) (UniProt P05231); assay: electrochemical aptasensor (DPV); conditions: toluidine blue, 100-fold excess over 5 ng/mL AFP; 10 mM sodium phosphate buffer pH 7.0, 30 min incubation at room temperature; CV in 10 mM PBS pH 7.4 with 5 mM [Fe(CN)6]3-; commercial protein; single-stranded DNA
# [5] = molecular target: T2, Matrix metalloproteinase-7 (MMP-7) (Homo sapiens) (UniProt P09237); assay: electrochemical aptasensor (DPV); conditions: toluidine blue, 100-fold excess over 5 ng/mL AFP; 10 mM sodium phosphate buffer pH 7.0, 30 min incubation at room temperature; CV in 10 mM PBS pH 7.4 with 5 mM [Fe(CN)6]3-; commercial protein; single-stranded DNA
# T2 sequence (looked up, limits assumed): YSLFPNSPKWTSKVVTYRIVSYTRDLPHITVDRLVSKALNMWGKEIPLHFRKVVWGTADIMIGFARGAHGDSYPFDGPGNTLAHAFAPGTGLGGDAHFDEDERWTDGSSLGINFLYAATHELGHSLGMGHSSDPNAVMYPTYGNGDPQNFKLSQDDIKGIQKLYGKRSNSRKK
sequence,measurement,setting,value
GTGACGCTCCTAACGCTGACTCAGGTGCAGTTCTCGACTCGGTCTTGATGTGGGTCCTGTCCGTCCGAACCAATC [AFP-specific aptamer (75-mer)],Kd,Alpha-fetoprotein (AFP),2.37 nM
same,binding result,[1],no binding
same,binding result,[2],no binding
same,binding result,[3],no binding
same,binding result,[4],no binding
same,binding result,[5],no binding
